The list shows a part of the results. Many values rest on one well or one pass, so single values are uncertain.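 The apoptosis fraction was the count of cleaved-PARP antibody-stained nuclei relative to all DNA-stained nuclei, imaged in 1,536-well plates. Screening doses were set so most cells survived, and baseline and induced cleaved-PARP levels vary greatly across cell lines.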
Legend:
Test in all cases: cleaved PARP positive nuclei fraction relative to DMSO control; melanoma cells; higher = more apoptosis
Settings in all cases: library dose: low library concentration; 72 h
WM115 = system: WM115
WM1716 = system: WM1716
WM1745 = system: WM1745
WM3526 = system: WM3526
WM3619 = system: WM3619
WM451Lu = system: WM451Lu

Structure (SMILES) | cleaved PARP positive nuclei fraction (WM115) | cleaved PARP positive nuclei fraction (WM1716) | cleaved PARP positive nuclei fraction (WM1745) | cleaved PARP positive nuclei fraction (WM3526) | cleaved PARP positive nuclei fraction (WM3619) | cleaved PARP positive nuclei fraction (WM451Lu)
CC(=O)c1c(C)c2cnc(Nc3ccc(N4CCNCC4)cn3)nc2n(C2CCCC2)c1=O [palbociclib] + O=C(Nc1ccccc1)c1cc([N+](=O)[O-])ccc1Cl [GW9662] (first compound 0.04 µM, partner dose 2 µM) | 61.7% | 205% | 107% | 114% | 191% | 77.4%
CC1(C)NC(=O)N(c2ccc([N+](=O)[O-])c(C(F)(F)F)c2)C1=O [nilutamide] + Oc1cc(-c2nc(-c3ccccc3)[nH]c2-c2ccncc2)ccc1Cl [L779450] (first compound 1 µM, partner dose 0.2 µM) | 78.6% | 136% | 105% | 218% | 42.8% | 126%
CC1(C)NC(=O)N(c2ccc([N+](=O)[O-])c(C(F)(F)F)c2)C1=O [nilutamide] + O=C(Nc1cccc(Cl)c1)Nc1ncc(CCNc2ncnc3ccsc23)s1 [SNS314] (first compound 1 µM, partner dose 0.0008 µM) | 413% | 186% | 104% | 50.9% | 59.6% | 48.4%
CC(=O)c1c(C)c2cnc(Nc3ccc(N4CCNCC4)cn3)nc2n(C2CCCC2)c1=O [palbociclib] + C#Cc1cccc(Nc2ncnc3cc(OCCOC)c(OCCOC)cc23)c1 [erlotinib] (first compound 0.04 µM, partner dose 0.8 µM) | 108% | 276% | 142% | 147% | 142% | 126%
Cc1nc(Nc2ncc(C(=O)Nc3c(C)cccc3Cl)s2)cc(N2CCN(CCO)CC2)n1 [dasatanib] + Cn1cncc1[C@@](N)(c1ccc(Cl)cc1)c1ccc2c(c1)c(-c1cccc(Cl)c1)cc(=O)n2C [tipifarnib] (first compound 0.004 µM, partner dose 0.01 µM) | 289% | 200% | 125% | 75.4% | 116% | 122%
Cn1nnc2c(C(N)=O)ncn2c1=O [temozolomide] + Cc1cc(N2CCOCC2)cc2[nH]c(-c3c(NC[C@@H](O)c4cccc(Cl)c4)cc[nH]c3=O)nc12 [BMS536924] (first compound 2 µM, partner dose 0.2 µM) | 67.6% | 227% | 109% | 107% | 111% | 172%
C[C@@H]1CCN(C(=O)CC#N)C[C@@H]1N(C)c1ncnc2[nH]ccc12 + O=C(Nc1cccc(Cl)c1)Nc1ncc(CCNc2ncnc3ccsc23)s1 [SNS314] (first compound 1 µM, partner dose 0.0008 µM) | 154% | 38.8% | 108% | 60.5% | 89.1% | 118%
Cn1c(Nc2ccc(C(F)(F)F)cc2)nc2cc(Oc3ccnc(-c4ncc(C(F)(F)F)[nH]4)c3)ccc21 + NCC(=O)Nc1ccc(-n2nc(C(F)(F)F)cc2-c2ccc3c(ccc4ccccc43)c2)cc1 [OSU03012] (first compound 0.08 µM, partner dose 1 µM) | 1100% | 171% | 126% | 112% | 127% | 363%
Clc1ccc(Nc2nnc(Cc3ccncc3)c3ccccc23)cc1 [vatalanib] + Cc1cc([N+](=O)[O-])ccc1NS(=O)(=O)c1cc(Cl)ccc1Cl [FH535] (first compound 2 µM, partner dose 1 µM) | 158% | 70.6% | 108% | 87% | 180% | 153%
Clc1ccc(Nc2nnc(Cc3ccncc3)c3ccccc23)cc1 [vatalanib] + Cc1nc(Nc2ncc(C(=O)Nc3c(C)cccc3Cl)s2)cc(N2CCN(CCO)CC2)n1 [dasatanib] (first compound 2 µM, partner dose 0.004 µM) | 140% | 186% | 132% | 82.6% | 101% | 144%
CC1(C)NC(=O)N(c2ccc([N+](=O)[O-])c(C(F)(F)F)c2)C1=O [nilutamide] + c1cc(-c2cnn3cc(-c4ccc(OCCN5CCCCC5)cc4)cnc23)ccn1 [Dorsomorphin] (first compound 1 µM, partner dose 0.4 µM) | 140% | 108% | 106% | 60.2% | 171% | 136%
C=CCn1c(=O)c2cnc(Nc3ccc(N4CCN(C)CC4)cc3)nc2n1-c1cccc(C(C)(C)O)n1 + Cc1cc(N2CCOCC2)cc2[nH]c(-c3c(NC[C@@H](O)c4cccc(Cl)c4)cc[nH]c3=O)nc12 [BMS536924] (first compound 0.02 µM, partner dose 0.2 µM) | 91.5% | 72.7% | 145% | 66.3% | 138% | 55%
Cc1ccc(NC(=O)c2cccc(N(C)C)c2)cc1NC(=O)c1ccc(O)cc1 + COc1cc2ncnc(Nc3ccc(Oc4ccccc4)cc3)c2cc1OC [SrcI1] (first compound 2 µM, partner dose 2 µM) | 135% | 15.2% | 114% | 77.3% | 78.5% | 158%
O=C(CCCCCCC(=O)Nc1ccccc1)NO [vorinostat] + CN(NC(=O)CC(=O)NN(C)C(=S)c1ccccc1)C(=S)c1ccccc1 [STA4783] (first compound 0.08 µM, partner dose 0.006 µM) | 69.4% | 367% | 353% | 77.8% | 109% | 591%
NC(=O)Nc1cc(-c2cccc(F)c2)sc1C(=O)N[C@H]1CCCNC1 + CN(NC(=O)CC(=O)NN(C)C(=S)c1ccccc1)C(=S)c1ccccc1 [STA4783] (first compound 0.02 µM, partner dose 0.006 µM) | 196% | 226% | 326% | 66.2% | 196% | 64.9%

An excerpt of these results, as a markdown table:

| Structure (SMILES) | cleaved PARP positive nuclei fraction (WM115) | cleaved PARP positive nuclei fraction (WM1716) | cleaved PARP positive nuclei fraction (WM1745) | cleaved PARP positive nuclei fraction (WM3526) | cleaved PARP positive nuclei fraction (WM3619) | cleaved PARP positive nuclei fraction (WM451Lu) |
| --- | --- | --- | --- | --- | --- | --- |
| CC1(C)NC(=O)N(c2ccc([N+](=O)[O-])c(C(F)(F)F)c2)C1=O [nilutamide] + Oc1cc(-c2nc(-c3ccccc3)[nH]c2-c2ccncc2)ccc1Cl [L779450] (first compound 1 µM, partner dose 0.2 µM) | 78.6% | 136% | 105% | 218% | 42.8% | 126% |
| Cn1c(Nc2ccc(C(F)(F)F)cc2)nc2cc(Oc3ccnc(-c4ncc(C(F)(F)F)[nH]4)c3)ccc21 + NCC(=O)Nc1ccc(-n2nc(C(F)(F)F)cc2-c2ccc3c(ccc4ccccc43)c2)cc1 [OSU03012] (first compound 0.08 µM, partner dose 1 µM) | 1100% | 171% | 126% | 112% | 127% | 363% |

Reference: the supplement of paper PMC4604168 (melanoma cell lines)
